Experimental data from PubChem BioAssay AID1439 (NMMLSC, 2008).
Screen size: about 220,000 compounds; about 770 (0.35%) were called active. Inconclusive results, whose numbers are uncertain, are shown with a selection of clear calls. Rule as the data show it: active = binding response below about 49% or above about 150%; inconclusive = no clear call, values can overlap the other calls; inactive = in between.

Amino acid sequences for entries named in this document (tags omitted).
UniProt P09471, whole entry, looked up: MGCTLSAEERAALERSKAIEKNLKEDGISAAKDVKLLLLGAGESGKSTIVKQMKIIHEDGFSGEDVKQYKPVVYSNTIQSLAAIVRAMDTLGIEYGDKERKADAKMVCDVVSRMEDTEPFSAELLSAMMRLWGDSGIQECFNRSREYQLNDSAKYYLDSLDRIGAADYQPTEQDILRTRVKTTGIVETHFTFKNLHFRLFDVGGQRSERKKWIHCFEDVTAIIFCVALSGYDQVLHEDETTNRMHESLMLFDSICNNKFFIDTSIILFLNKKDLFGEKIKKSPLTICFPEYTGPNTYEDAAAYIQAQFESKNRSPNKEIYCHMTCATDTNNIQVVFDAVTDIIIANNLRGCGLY

The compounds below were run against Guanine nucleotide-binding protein G(o) subunit alpha (Homo sapiens) (UniProt P09471) (assay: RGS7-Galphao binding modulators, primary screen, biochemical, multiplexed bead flow cytometry (AID 1439;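 also: fluorescent Galphao held in activated GDP-AlF4 state binding bead-coupled RGS7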)). Settings: at 10 µM, actives lie on both sides.
For `COc1ccc(S(=O)(=O)CCC(=O)Nc2cccc(OC)c2)cc1`, the binding response (% of control) was inactive: 100%. `CCOC(=O)c1cnn(-c2ncnc3sc4c(c23)CCC4)c1N` was tested, and the binding response (% of control) was inactive: 116%. In the case of `COc1ccc(CCNC(=O)COc2ccc([N+](=O)[O-])cc2)cc1`, the binding response (% of control) is reported as inconclusive: 129%. With `Cc1ccc(OCC(=O)N2CCN(C(=O)c3ccco3)CC2)cc1` the binding response (% of control) was inconclusive: 99.8%. In the case of `CC(NC(=S)NCc1ccccc1)C12CC3CC(CC(C3)C1)C2` (stereo not given), the binding response (% of control) is reported as inconclusive: 109%. `Cc1[nH]c2ccc(C(C)C)cc2c1CC(=O)O` was tested, and the binding response (% of control) was inconclusive: 153%. For `COc1ccc(OC)c(-n2c(SCC(=O)Nc3cccc(S(N)(=O)=O)c3)nc3ccccc3c2=O)c1`, the binding response (% of control) was inconclusive: 64.2%. `Oc1ccc(Br)cc1CNc1ccccn1` was tested, and the binding response (% of control) was inconclusive: 91.3%. `C#CC(CC)(CC)NC(=O)/C=C/C(=O)O` was tested, and the binding response (% of control) was inconclusive: 131%. In the case of `CCN1CCCC1CNC(=O)C(=O)Nc1ccccc1OC` (stereo not given), the binding response (% of control) is reported as active: 153% [activator]. With `COc1cccc(C(=O)Nc2cc(C)c3c(=O)oc4ccccc4c3n2)c1` the binding response (% of control) was inconclusive: 93.1%. With `CCOC(=O)NC(=O)c1cn(Nc2ccccc2)c(=O)[nH]c1=O` the binding response (% of control) was inconclusive: 106%. `COc1cccc(/C=N/NC(=O)NC2CCCCC2)c1O` was tested, and the binding response (% of control) was inconclusive: 104%. For `COCCCNc1nc(N)c([N+](=O)[O-])c(NCC2CCCO2)n1` (stereo not given), the binding response (% of control) was inconclusive: 130%. For `Cc1cccc(OCc2nnc(SCC(=O)NCCc3ccccc3)o2)c1`, the binding response (% of control) was inactive: 104%. In the case of `CC(C(=O)NCCN1CCOCC1)(c1ccccc1)c1ccccc1`, the binding response (% of control) is reported as inconclusive: 89.1%. `Cc1ccc2[nH]c(=O)c(CN(Cc3ccco3)C(=O)CN3CCCC(C)C3)cc2c1` (stereo not given) was tested, and the binding response (% of control) was inactive: 100%. With `CC(=O)c1c(C)[nH]c(C(=O)OCC(=O)c2c(N)n(C)c(=O)n(C)c2=O)c1C` the binding response (% of control) was inconclusive: 83.6%. With `Cc1cccc2cc(C3CC(c4ccco4)=NN3S(C)(=O)=O)c(Cl)nc12` (stereo not given) the binding response (% of control) was inconclusive: 65.4%. For `COc1ccc(-c2ccnc(SCC(=O)N3CCN(c4ccccc4)CC3)n2)cc1`, the binding response (% of control) was inconclusive: 122%. In the case of `CS(=O)(=O)c1ccc2nc(NC(=O)c3ccc(NS(=O)(=O)c4ccc(F)c(F)c4)cc3)sc2c1`, the binding response (% of control) is reported as inconclusive: 110%. In the case of `CCOC(=O)N1CCN(C(=S)NC(=O)c2ccc(Br)cc2)CC1`, the binding response (% of control) is reported as inconclusive: 106%. In the case of `CCOC(=O)c1cnn(-c2ccc([N+](=O)[O-])cc2)c1N`, the binding response (% of control) is reported as inconclusive: 32.1%. For `O=C(c1ccc(-c2ccc([N+](=O)[O-])cc2Cl)o1)N1CCOCC1`, the binding response (% of control) was inconclusive: 98.5%. With `Clc1ccc(N/N=C/c2ccncc2)cc1Cl` the binding response (% of control) was inactive: 113%. `O=C(Nc1sc(-c2ccccc2)cc1C(=O)O)c1ccccc1` was tested, and the binding response (% of control) was inconclusive: 152%. In the case of `C/C(=N\N=C1\NC(=O)C(CC(=O)Nc2ccc(Cl)cc2)S1)c1ccco1` (stereo not given), the binding response (% of control) is reported as inconclusive: 87.1%. `Cn1c(NC(=O)c2ccc(S(=O)(=O)N3CCOCC3)cc2)cc(=O)n(C)c1=O` was tested, and the binding response (% of control) was inactive: 102%. With `COc1ccc(NC(=O)CCC(=O)OCc2ccc([N+](=O)[O-])cc2)cc1` the binding response (% of control) was inconclusive: 68.5%. With `CC(=O)c1c(C)oc2ccc(N(C(=O)c3ccncc3)S(=O)(=O)c3ccccc3)cc12` the binding response (% of control) was inconclusive: 99.4%. For `COc1ccccc1NC(=O)Nc1nn(C)c2cccc(OC)c12`, the binding response (% of control) was inconclusive: 94%. In the case of `CC1CN(S(=O)(=O)c2cccc(C(=O)OC/C(O)=C(\C#N)c3nc4ccccc4[nH]3)c2)CC(C)O1` (stereo not given), the binding response (% of control) is reported as inactive: 98.5%. With `CCOC(=O)c1ccccc1NS(=O)(=O)c1ccccc1` the binding response (% of control) was inactive: 96.5%. In the case of `C=CCN1C(=O)N(c2ccc(Cl)cc2)C(=O)C1CC(=O)Nc1ccc(F)cc1` (stereo not given), the binding response (% of control) is reported as inconclusive: 103%. For `C=CCn1c(SCC(=O)c2c(N)n(CCC)c(=O)n(C)c2=O)nnc1-c1ccncc1`, the binding response (% of control) was inconclusive: 104%. With `Cc1cc(=O)c2cc(Br)ccc2n1CC(=O)NCc1ccccc1` the binding response (% of control) was inconclusive: 80.4%. `O=C(N/N=C/c1cccnc1)c1ccccc1NS(=O)(=O)c1cccs1` was tested, and the binding response (% of control) was inconclusive: 110%. With `Cc1ccc(N(CN2C(=O)C3C4CCC(C4)C3C2=O)C(=O)c2ccco2)cc1` (stereo not given) the binding response (% of control) was inconclusive: 387%. With `Cc1ccc(NC(=O)c2cccc3c2-c2ccccc2C3=O)cc1C` the binding response (% of control) was inactive: 102%. `Cn1c2ccccc2c2cnn(CC(=O)Nc3ccc(Cl)cc3)c(=O)c21` was tested, and the binding response (% of control) was inconclusive: 131%. For `CCOC(=O)C1(Cc2ccc(OC)cc2)CCN(C(=O)C2CC(=O)N(C3CC3)C2)CC1` (stereo not given), the binding response (% of control) was inconclusive: 46.2%. In the case of `Cc1c(NC(=S)SCc2ccccc2)c(=O)n(-c2ccccc2)n1C`, the binding response (% of control) is reported as inactive: 102%. For `O=C(O)CCC(=O)Nc1sc2c(c1C(=O)Nc1cccc3ccccc13)CCCCC2`, the binding response (% of control) was active: 191% [activator]. `Cc1ccc(/C=N/NC(=O)c2ccc3c(c2)OCCO3)s1` was tested, and the binding response (% of control) was inconclusive: 174%. With `O=C1CN(C(=O)Cn2ncc(Cl)c(Cl)c2=O)c2ccccc2N1` the binding response (% of control) was inconclusive: 83.9%. In the case of `Cn1cccc1/C=C1\SC(=O)N(CC(=O)Nc2ccc(Cl)cc2)C1=O`, the binding response (% of control) is reported as inactive: 100%. For `CCN(CC)S(=O)(=O)c1ccc2c(c1)nc(CCC(=O)O)n2C`, the binding response (% of control) was inconclusive: 117%. For `CCCC(=O)Nc1ccc2c(c1)nc(CCNC(=O)c1ccco1)n2C`, the binding response (% of control) was inconclusive: 109%. With `COc1cc(Cl)c(C)cc1NC(=O)Cn1c(NCCO)nc2ccccc21` the binding response (% of control) was inconclusive: 148%. With `Cc1ccnc(NC(=O)c2ccco2)n1` the binding response (% of control) was inconclusive: 87.6%. For `COc1ccc(C(=O)NNC(=S)Nc2ccccc2)cc1`, the binding response (% of control) was inconclusive: 130%. `Cc1noc(C)c1C(=O)NCc1ccccc1F` was tested, and the binding response (% of control) was inconclusive: 112%. For `O=C(Nc1ccccc1)N1CCN(C2c3ccccc3-c3ccccc32)CC1`, the binding response (% of control) was inconclusive: 94.2%. With `COc1cc2c(cc1OC)CN(C(=O)CCN1C(=O)C3CCCCC3C1=O)CC2` (stereo not given) the binding response (% of control) was inconclusive: 103%. In the case of `COc1ccc(-c2cc(C3CCN(Cc4cccc(C(F)(F)F)c4)CC3)[nH]n2)cc1`, the binding response (% of control) is reported as inconclusive: 90%. `CN1CCN(CCC(=O)Nc2ccc(C3CCCC3)cc2)CC1` was tested, and the binding response (% of control) was inconclusive: 116%. `O=C(NCCCN1CCOCC1)C(=O)NCc1ccco1` was tested, and the binding response (% of control) was inactive: 107%. In the case of `COc1ccc(/C=C/C(=O)OCC(=O)c2c(N)n(C)c(=O)n(C)c2=O)c(OC)c1`, the binding response (% of control) is reported as inactive: 98.2%. In the case of `Cc1nnc(SCc2cc(=O)[nH]c(/N=C(\N)Nc3ccccc3)n2)s1`, the binding response (% of control) is reported as inconclusive: 40.2%. With `C/C(=N\OCc1ccccc1)c1c(O)cc(C(C)C)n(-c2ccccc2)c1=O` the binding response (% of control) was inactive: 101%. In the case of `COc1ccc(NC(=O)CSc2nnc(-c3cccnc3)n2C)cc1`, the binding response (% of control) is reported as inconclusive: 84.8%. With `CN(C)S(=O)(=O)Oc1cccc(C(=O)Nc2ccc([N+](=O)[O-])cc2)c1` the binding response (% of control) was inactive: 102%. `NC(=O)c1ccc(NC(=O)COc2ccc([N+](=O)[O-])cc2Cl)cc1` was tested, and the binding response (% of control) was inconclusive: 73.2%. With `Cc1ccc(C(NC(=O)N2CCN(C)CC2)C(Cl)Cl)cc1F` (stereo not given) the binding response (% of control) was inconclusive: 113%. In the case of `CC(=O)Nc1nc(CC(C)C)cc(-c2ccco2)c1C#N`, the binding response (% of control) is reported as inactive: 109%. In the case of `Cc1ccc(NCC(O)Cn2cnc3c2c(=O)n(C)c(=O)n3C)cc1` (stereo not given), the binding response (% of control) is reported as inconclusive: 63.4%. For `COc1ccc(C(=O)C[n+]2ccc(-c3nnc4n3CCC4)cc2)cc1`, the binding response (% of control) was inactive: 98.5%. For `CN(C1CCCCC1)S(=O)(=O)c1ccc(C(=O)N2CCN(c3nc4ccccc4s3)CC2)cc1`, the binding response (% of control) was inactive: 100%. With `NC1=C(Br)C(=O)c2ccccc2C1=O` the binding response (% of control) was inconclusive: 117%. With `OC(CNCc1ccccc1Cl)C(F)(F)F` (stereo not given) the binding response (% of control) was inactive: 97.6%. `Cc1ccc(N=Cc2c(O)[nH]c3ccccc23)c([N+](=O)[O-])c1` was tested, and the binding response (% of control) was inconclusive: 66.6%. In the case of `CCOc1ccc(/C=N/OCC(=O)Nc2ccc3c(c2)OCO3)cc1`, the binding response (% of control) is reported as inconclusive: 96.9%. In the case of `COc1cc(/C(C)=N/NC(=O)CN2CCN(S(=O)(=O)c3ccc(C)cc3)CC2)ccc1O`, the binding response (% of control) is reported as inconclusive: 67.2%. With `COC(=O)c1sc(-c2ccc(C(C)(C)C)cc2)cc1NC(=O)CSCC(=O)O` the binding response (% of control) was inconclusive: 37.5%. In the case of `Cc1ccc(-c2cc(C(=O)N/N=C/c3ccco3)n[nH]2)s1`, the binding response (% of control) is reported as inactive: 97.8%. For `COc1ccc(C(=O)N/C(=C\c2cn(S(=O)(=O)N(C)C)c3ccccc23)C(=O)NC(C)C)cc1`, the binding response (% of control) was inactive: 93.5%. With `CCCOC(=O)c1ccc(NC(=O)COC)cc1` the binding response (% of control) was inactive: 104%. In the case of `COc1ccc(S(=O)(=O)N2CCCC(C(=O)NCc3ccc4c(c3)OCO4)C2)cc1` (stereo not given), the binding response (% of control) is reported as inconclusive: 118%. `Cc1cc(=O)nc2c3ccccc3n(C(C)C(=O)NCCC(C)C)n12` (stereo not given) was tested, and the binding response (% of control) was inconclusive: 80.9%. `COCc1cc(=O)n2[nH]c(N)nc2n1` was tested, and the binding response (% of control) was inconclusive: 51.8%. For `COc1ccc(CCN(C)C(=O)/C=C/c2c(Cl)nc3ccccn23)cc1OC`, the binding response (% of control) was inconclusive: 80.3%. For `Nc1n[nH]c2cccc(Cl)c12`, the binding response (% of control) was inconclusive: 62.8%. With `CSC1=N/C(=C\c2ccc(Cl)cc2)C(=O)N1N(C)C` the binding response (% of control) was inconclusive: 57.9%. In the case of `Cc1nn(C)c(C(=O)Sc2ccccc2)c1[N+](=O)[O-]`, the binding response (% of control) is reported as inconclusive: 94.9%. With `Cc1cc2nc(-c3cccnc3SCC(=O)NC(C)C)[nH]c2cc1C` the binding response (% of control) was inconclusive: 112%. In the case of `Cc1cc(C)c(NC(=S)N(C)C)c(C)c1`, the binding response (% of control) is reported as inconclusive: 93.2%. With `COc1cc(C(=O)Nc2ccc(S(=O)(=O)NC(C)(C)C)cc2)cc(OC)c1OC` the binding response (% of control) was inactive: 100%. For `CCS(=O)(=O)c1ccc2oc(SCC(=O)N3CCCCC3)nc2c1`, the binding response (% of control) was inconclusive: 97.5%. For `C/C(=N/NC(N)=S)c1ccc(Br)s1`, the binding response (% of control) was inactive: 91.1%. `CC1(C)C2CC=C(/C=N/NC(=O)C3CC3)C1C2` (stereo not given) was tested, and the binding response (% of control) was inconclusive: 90.3%.
